According to publication PMC3271085:
No constants are given. Whether binding was seen depends on the method and setting. Some entries that bind do so weakly or less than the wild type.

Protein sequences, listed by entry. Tags and fused reporters are not part of them. Residues count along the entry.
UniProt O15444, residues 24-150: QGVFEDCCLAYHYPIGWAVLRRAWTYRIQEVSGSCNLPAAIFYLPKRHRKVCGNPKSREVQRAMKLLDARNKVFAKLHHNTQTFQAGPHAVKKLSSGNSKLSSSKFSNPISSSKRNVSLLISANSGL

Target: T1, human CCR9 (human) (UniProt P51686)
T1 sequence: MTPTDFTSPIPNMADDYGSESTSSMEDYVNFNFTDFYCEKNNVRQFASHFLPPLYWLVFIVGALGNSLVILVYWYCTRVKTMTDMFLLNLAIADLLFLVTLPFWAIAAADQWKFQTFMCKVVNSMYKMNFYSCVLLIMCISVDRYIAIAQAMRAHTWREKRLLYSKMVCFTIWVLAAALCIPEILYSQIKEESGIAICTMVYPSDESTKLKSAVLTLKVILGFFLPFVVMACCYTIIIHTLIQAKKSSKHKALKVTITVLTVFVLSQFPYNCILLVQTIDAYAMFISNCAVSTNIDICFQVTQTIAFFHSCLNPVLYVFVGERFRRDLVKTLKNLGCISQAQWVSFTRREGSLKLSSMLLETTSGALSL
Test: radioligand binding; only the binder purified

Substance: radio-iodinated recombinant human CCL25 (from UniProt O15444 24-150) (ligand)
- binding: binds
